Reference: patent publication US20060058383A1 (priority 2004, published 2006)
At least one compound was matched to its structure with a doubt left.

Test system: p70S6K, 4E-BP-1 and BAD phosphorylation in Raji cells
Experiment: Phosphorylation of mTOR downstream targets and BAD, western blot
Type: cell-based, human
Conditions: 100 ng/ml; 24 h
Procedure: The phosphorylation of p70S6K and 4E-BP1, two target molecules of mTOR, was examined as indications of mTOR inhibition.
The effect of rapamycin on BAD phosphorylation in 3-BrOP-treated cells was examined.
Protein lysates were prepared from the control and drug-treated cells, and separated by electrophoresis on 10% SDS-PAGE. […] The antibodies were dilute at 1:1,000 unless indicated otherwise. The bound primary antibodies were detected using appropriate horseradish peroxidase-conjugated secondary antibodies, followed by detection with a SuperSignal enhanced chemiluminescence kit (Pierce, Rockford, Ill.). For sequential blotting, the membranes were stripped with a stripping buffer (Pierce, Rockford, Ill.) followed by re-blotting with proper antibodies.

Question: How did the “phosphorylation of p70S6K at Thr389” value turn out when CO[C@H]1C[C@@H]2CC[C@@H](C)[C@@](O)(O2)C(=O)C(=O)N2CCCC[C@H]2C(=O)O[C@H]([C@H](C)C[C@@H]2CC[C@@H](O)[C@H](OC)C2)CC(=O)[C@H](C)/C=C(\C)[C@@H](O)[C@@H](OC)C(=O)[C@H](C)C[C@H](C)/C=C/C=C/C=C/1C [rapamycin, reference compound] was run?
Answer: completely abolished

Question: And the “phosphorylation of p70S6K at Thr421/Ser424 and 4E-BP-1 at Ser65” value?
Answer: decrease
